± gives the standard deviation of the averaged measurements. The full ranking holds about 3,800 compounds; the median of “cell shape (eccentricity) Z-score vs DMSO control” is about 1.1, and the lowest 2% start at about -4.7. The list shows a part of the results.
Test system: human monocyte-derived macrophages (M0)
Experiment: cell shape (eccentricity) Z-score vs DMSO control; higher = more elongated, M2-like morphology
Conditions: 20 µM; 24 h; macrophage state: M0 (M-CSF)
Procedure: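 Primary human monocyte-derived macrophages (M-CSF differentiated, pooled from 4 donors, 5000 cells/well in 384-well plates) were treated with each compound at 20 uM for 24 h, then fixed and stained with phalloidin/DAPI and imaged on an Opera Phenix (6 fields, about 1000 cells/well). Cell eccentricity was measured with CellProfiler, and a Z-score (t-test) was computed against 4 DMSO control wells in the same row. Negative values mean round (M1-like) cells and positive values mean elongated (M2-like) cells; the paper's hit cutoffs are Z <= -4 (M1) and Z >= 6 (M2). Scale: negative = round, M1-like.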

SMILES	cell shape (Z-score)
Cc1c(-c2ccnc(Nc3ccc(N4CCNCC4)cc3)n2)sc(=O)n1C	9.91
COc1cc(-c2oc3cc(O)cc(O)c3c(=O)c2O)ccc1O	-0.173
C=C(CCCCCCCC(=O)O)C(=O)OC	1.12
O=c1cc(-c2ccccc2)oc2cc(O)cc(O)c12	4.86
C=C1CC[C@@H]2[C@](C)(CO)[C@H](O)CC[C@@]2(C)[C@@H]1C/C=C1/C(=O)OC[C@H]1O	-2.32
c1ccc(-c2ccc(C(c3ccccc3)n3ccnc3)cc2)cc1 (stereo not drawn)	3.34
CC(=O)NS(=O)(=O)c1ccc(N)cc1	-0.328
COc1ccc(NS(=O)(=O)c2ccc(I)cc2)cc1N1CCN(C)CC1	3.22
c1ccc(N2CCN(CCCOc3ccc4c(c3)OCO4)CC2)cc1	0.669
CC(=O)CCCCn1c(=O)c2c(ncn2C)n(C)c1=O	0.92
CC(C)(C)c1nc(-c2cccc(NS(=O)(=O)c3c(F)cccc3F)c2F)c(-c2ccnc(N)n2)s1	5.93
CCCc1ncc(C(=O)O)s1	0.911
CC(=O)Nc1nc(C)c(-c2ccc(Cl)c(S(=O)(=O)NCCO)c2)s1	2.45
CC(C)c1ccc2c(c1)CCC1[C@](C)(CN)CCC[C@]21C (stereo partly drawn)	1.4
Clc1ccc(C2(c3ccc(-c4cn[nH]c4)cc3)CCNCC2)cc1	35.5
C[C@@H]1O[C@@H](OC[C@H]2OC(Oc3c(-c4ccc(O)c(O)c4)oc4cc(O)cc(O)c4c3=O)[C@H](O)[C@@H](O)[C@@H]2O)[C@H](O)[C@H](O)[C@H]1O (stereo partly drawn)	2.48
CC(C(=O)Nc1cccc(/N=C/c2c(O)ccc3ccccc23)c1)c1ccccc1 (stereo not drawn)	11
COC(=O)c1c(C)[nH]c(C)c1C(=O)c1ccccc1Cc1ccccc1	1.34
OCc1cc2c(cn1)[nH]c1ccccc12	1.25
C[C@@H]1C[C@@H](O)C2[C@@](C)(CO)CCC[C@]2(C)[C@@]1(O)CCc1ccoc1 (stereo partly drawn)	-1.07
CC1(C)CC(=O)C(C2C3=C(CC(C)(C)CC3=O)Oc3ccccc32)C(=O)C1 (stereo not drawn)	0.64
Cc1cc2ncc(-c3ccccc3)nc2cc1C	2.23
CC(=O)O[C@H]1C[C@@H](OC(C)=O)C(C)(C)C2C[C@@H](OC(C)=O)[C@]3(C)C(CC[C@@]4(C)[C@H](c5ccoc5)OC(=O)[C@H]5O[C@]543)[C@]21C (stereo partly drawn)	-2.55
Cc1cc(C(C)(C)C)cc(C)c1CC1=NCCN1	-0.0677

Given comma-delimited: two of the compounds above.
SMILES,cell shape (Z-score)
COc1cc(-c2oc3cc(O)cc(O)c3c(=O)c2O)ccc1O,-0.173
C=C(CCCCCCCC(=O)O)C(=O)OC,1.12

Next compounds.

SMILES	cell shape (Z-score)
COc1cc(C2c3c(cc(OC)c(O)c3OC)CC(CO)C2COC2OC(CO)C(O)C(O)C2O)cc(OC)c1O (stereo not drawn)	2.38 ± 0.58
O=C(O)c1ccccc1Nc1cccc(C(F)(F)F)c1	0.77
O=C1Cc2cc(Cl)ccc2N1	0.476
OC(CCN1CCCC1)(c1ccccc1)C1CCCCC1 (stereo not drawn)	-1.76
CN1CCc2c(c3ccccc3n2Cc2ccc(C(=O)NO)cc2)C1	2.6
CC(=O)O[C@]1(C(C)=O)CCC2C3C=C(C)C4=CC(=O)CC[C@]4(C)C3CC[C@@]21C (stereo partly drawn)	-2.18
CCC(C(N)=O)c1ccccc1 (stereo not drawn)	-0.362
CC(=O)O[C@@]1(C)[C@@H]2CC(=C(C)C)C(=O)C[C@@]2(C)CC[C@H]1OC(=O)C1(C)OC1C (stereo partly drawn)	0.417
O=c1c(OC2OC(CO)C(O)C(O)C2OC2OC(CO)C(O)C(O)C2O)c(-c2ccc(O)cc2)oc2cc(O)cc(O)c12 (stereo not drawn)	0.138 ± 1.7
Cc1occc(=O)c1O	4.83
COC(CC(c1c(O)cc2cc(C)oc(=O)c2c1O)c1c(O)cc2cc(C)oc(=O)c2c1O)C(=O)O (stereo not drawn)	2.13
COc1cccc(C=NC=Nc2cccc(OC)c2)c1	0.294
CC[N+](C)(CC)CCOC(=O)C(O)(c1ccccc1)C1CCCCC1 (stereo not drawn)	2.22
CN1CCCC(CN2c3ccccc3Sc3ccccc32)C1 (stereo not drawn)	2.12
C=C[C@H]1C[N@@]2CC[C@H]1C[C@@H]2[C@H](O)c1ccnc2ccc(OC)cc12	0.88
CCCCc1nn(-c2ccccc2C(F)(F)F)c(=O)n1Cc1ccc(-c2ccccc2S(=O)(=O)NC(=O)c2sccc2C)cc1	-0.189
CC[C@@H]1C(=O)OC[C@@H]1Cc1cncn1C	0.438
C=C[C@@H](C1=CC(=O)C(OC)=C(OC)C1=O)c1ccccc1	2.57
O=C1NC(=S)S/C1=C/c1cc(Br)ccc1OCc1ccccc1Br	2.28
CCCCOC(=O)c1cc2c(cn1)[nH]c1ccccc12	2.67
Cc1ccc(S(=O)(=O)NC(=O)NN2CC3CCCC3C2)cc1 (stereo not drawn)	2.77
C[C@@H](N)[C@H]1CC[C@H](C(=O)Nc2ccncc2)CC1	19.1
C=C1C(=O)O[C@@H]2/C=C(\C)CC/C=C(\C)CC[C@@H]12	-1.08
CC1OC(OCC2OC(Oc3cc(O)c4c(=O)c(-c5ccc(O)cc5)coc4c3)C(O)C(O)C2O)C(O)C(O)C1OC1OC(CO)C(O)C(O)C1O (stereo not drawn)	1.42 ± 1.7

Grouped by structure: the compounds so far with a tert-butyl group (two)
SMILES	cell shape (Z-score)
CC(C)(C)c1nc(-c2cccc(NS(=O)(=O)c3c(F)cccc3F)c2F)c(-c2ccnc(N)n2)s1	5.93
Cc1cc(C(C)(C)C)cc(C)c1CC1=NCCN1	-0.0677

— the supplement of paper PMC7858590
